“Also recorded” adds a separate entry of the source. For at least one compound, name, drawing or mass did not settle the structure. Starred links: 1 amine or outer side, 2 acyl side, 3 side chain; linkers in the order of their positions; H or OH if unused. Residues, ends and D or L forms follow the SMILES beside them. CO = O=C([*:1])[*:2]
Tested on: human tryptase-like protein
Assay: Effects of inhibitors on the trypsin-like activity
Format: biochemical
Conditions: 10 µM inhibitor
Protocol: Enzyme activity of the human tryptase-like protein during the course of purification or after purification was measured as follows. The enzyme sample was added to 0.1 M Tris-HCl buffer (pH 7.8) containing 25 mM calcium chloride and 100 µM of fluorogenic substrate. The fluorescence was measured with excitation and emmision wavelength of 380 nm and 460 nm, respectively.
Effects of inhibitors on the trypsin-like activity of the human tryptase-like protein was examined using Boc-Gln-Gly-Arg-MCA as substrate.

For CC(C)[C@H](NC(=O)[C@H](CCCNC(=N)N)NC(=O)N[C@@H](Cc1ccccc1)C(=O)O)C(=O)N[C@H](C=O)CCCNC(=N)N [Antipain] ({Phe-CO}-Arg-Val-Arg-aldehyde), the “inhibition of trypsin-like activity” value was “inhibited; also recorded: strongly inhibited”, the “Inhibition (%)” value (substrate Boc-Gln-Gly-Arg-MCA) was 95% and the Activity (substrate Boc-Gln-Gly-Arg-MCA, control 843.1) was 44.4 µU/ml.
